“And” between values parts separate entries of the source, which are not always exact repeats. Equal values may be shown once. About 7,500 (2.1%) of roughly 360,000 compounds were called active. Inconclusive results, whose numbers are uncertain, are shown with a selection of clear calls. Calls follow the shape of the dose curve; as a rule, active = well fitted inhibition curve with a large enough effect; inconclusive = small, poorly fitted or top-dose-only effect, or effect the other way; inactive = flat fitted curve, though single readings scatter. Where the call is inconclusive, the potency comes from a doubtful curve fit.
Experiment: Nrf2 qHTS screen for inhibitors; also: nearly all actives have a fitted effect of over 60% in size
Settings: A549 ARE-Fluc reporter, luciferase luminescence, 18-24 h; series mostly up to 46 µM
In short: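 Nrf2 function is reported as luminescence of an ARE-controlled luciferase in A549 cells. Compounds were tested at several concentrations, and a CellTiter-Fluor read on the same wells flagged cytotoxicity.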
Potency is read from the fitted curve at half-maximal effect.

SMILES | Potency
CC(=O)Nc1ccc(-c2nc3c(C)cccc3[nH]2)cc1 | inconclusive: 4.11 µM [activator, full curve]
CC(=O)Nc1cccc(OCC(=O)Nc2cccc(S(=O)(=O)N3CCCC3)c2)c1 | inconclusive: 20.6 µM [falling, partial curve]
C=CCn1c(-c2ccc(Cl)cc2)cnc1SC(C)C(=O)NC(N)=O (stereo not given) | inactive
CC1CC(C)CN(C(=O)C2CCN(S(=O)(=O)N3CCC4(CC3)OCCO4)CC2)C1 (stereo not given) | inactive
O=C(Cc1cccc2ccccc12)Nc1ccc(-c2cc3ccccc3oc2=O)cc1 | active: 5.8 µM
Cc1cccc(C2=NC(C(F)(F)F)(C(F)(F)F)c3c(n(-c4ccc(F)cc4)c(=O)[nH]c3=O)N2)c1 | inactive
COc1ccc2cc3c(N)nn(C(=O)c4ccccc4[N+](=O)[O-])c3nc2c1 | inconclusive: 11.6 µM [falling, partial curve]
Cc1nc2nc(NCc3ccc(Cl)cc3)[nH]n2c(=O)c1Cc1ccccc1 | inconclusive: 29.1 µM [falling, single point]
Cc1cc(C)c(C(=O)N2CCCC(N3CCN(c4cccc(C(F)(F)F)c4)CC3)C2)o1 (stereo not given) | inconclusive: 29.1 µM [falling, single point]
COC(=O)NCC(c1cccnc1)N1CCN(c2ccc(F)cc2)CC1 (stereo not given) | inconclusive: 29.1 µM [falling, single point]
COC(=O)c1c(C)oc2ccc(N(C(=O)Oc3ccccc3)S(=O)(=O)c3ccccc3)cc12 | inconclusive: 29.1 µM [falling, single point]
Cc1cc(NC(=O)COC(=O)C(Nc2ccc(C(F)(F)F)cc2Cl)C(C)C)no1 (stereo not given) | active: 23.1 µM
O=C1c2ccccc2C(=O)N1CCOCCN1C(=O)c2ccccc2C1=O | inconclusive: 0.0058 µM [falling, full curve, poor fit]
O=C(CN1C(=O)NC2(CCCCCCC2)C1=O)NCc1ccc(F)cc1 | inactive
CCOc1ccc(NC(=O)COC(=O)C2CCC(=O)N2)c([N+](=O)[O-])c1 (stereo not given) | inactive
Cc1ccc(CNC(=O)CCCn2c(=O)c3ccccc3n(CC(=O)Nc3ccc(C)c(C)c3)c2=O)cc1 | inactive
O=C(Nc1cccc(S(=O)(=O)N2CCCCC2)c1)c1ccc(S(=O)(=O)C(F)F)cc1 | active: 18.4 µM
C/C(N)=C(/C#N)C(=O)CSc1nc2scc(-c3ccccc3)c2c(=O)n1C | active: 14.6 µM
CC(=O)Oc1ccc2c(c1)cc(C)n2C | inconclusive: 6.51 µM [activator, single point]
COc1ccc(C(=O)Nc2ccc(Nc3ccccc3)cc2)cc1[N+](=O)[O-] | inconclusive: 20.6 µM [falling, partial curve]
O=C(NCc1ccco1)c1ccccc1NS(=O)(=O)c1cccs1 | inactive
Cc1ccc2c(CC(=O)Nc3ccc(S(=O)(=O)N4CCCCC4)cc3)coc2c1 | inconclusive: 14.6 µM [falling, partial curve]
CCC(C)NS(=O)(=O)c1ccc(NC(=O)C(Sc2ccccc2)c2ccccc2)cc1 (stereo not given) | inconclusive: 29.1 µM [falling, single point]

SMILES | Potency
CC1CC2CCCC(O)=C2C(=O)O1 (stereo not given) | inactive
C=CCn1c(SCCN)nnc1-c1cccc(S(=O)(=O)N2CCOCC2)c1 | inactive
CCOc1cc(Br)ccc1S(=O)(=O)N1CC(C)OC(C)C1 (stereo not given) | inconclusive: 23.1 µM [falling, single point]
NC(=O)C(c1ccc(Sc2ccccc2)nn1)c1ccc(Cl)cc1Cl (stereo not given) | inconclusive: 16.4 µM [falling, partial curve, poor fit]
COc1ccc(OC)c(-c2nnc3n2N=C(c2c(OC)cccc2OC)CS3)c1 | inactive
COc1ccc(C(=O)OC2=C(C(=O)c3ccccc3)N(C)S(=O)(=O)c3ccccc32)cc1OC | inactive
CNC(=O)CSc1nc2nn(-c3ccccc3)c(=O)c-2c2n1CCCCC2 | inconclusive: 8.2 µM [activator, partial curve, poor fit]
COCCCN(Cc1ccco1)C(=O)c1cc2c(s1)-c1ccc(Cl)cc1S(=O)(=O)C2 | inconclusive: 18.4 µM [activator, single point]
CC1CCCN(C(=O)c2ccc3c(c2)OCCO3)C1 (stereo not given) | inconclusive: 32.6 µM [activator, single point]
CCOc1cc(/C=N/NC(N)=S)cc(Br)c1OCc1ccccc1C | inconclusive: 11.6 µM [falling, partial curve]
CC1=NN(c2ccccc2)C(=O)/C1=C\c1cc(C)n(-c2ccccc2)c1C | inconclusive: 20.6 µM [activator, partial curve, poor fit]
CCOC(=O)c1cnn(-c2nc(-c3ccc(C)cc3)cs2)c1C(F)(F)F | inconclusive: 2.31 µM [activator, partial curve, poor fit]
O=C1CCCN1c1ccc(S(=O)(=O)N2CCCCC2)cc1 | inconclusive: 29.1 µM [falling, single point]
CN(C)c1ccc(C#Cc2ccc3cc(CCO)oc(=O)c3c2)cc1 | inactive
Cc1ccc2[nH]c(=O)c(CN(Cc3ccccc3)Cc3nnnn3C3CCCC3)cc2c1 | inconclusive: 29.1 µM [falling, single point]
CN(CC(=O)Nc1ccccc1C(F)(F)F)C(=O)c1ccc(N2C(=O)CCC2=O)cc1 | inactive
Nc1ncnc2c1ncn2[C@H]1C[C@H](O)[C@@H](CO)O1 | inactive and inconclusive: 25.9 µM [activator, single point]
COc1cc(NS(=O)(=O)c2ccc(NC(=O)/C=C/c3ccc([N+](=O)[O-])cc3)cc2)ncn1 | inconclusive: 8.2 µM [falling, partial curve, poor fit]
Cc1c(C(=O)N2CCC(c3nc4ccccc4s3)CC2)oc2ccc(Cl)cc12 | inactive
Cc1ccc(S(=O)(=O)N2CCN(CCc3ccccc3)CC2)c(C)c1 | active: 18.4 µM
O=C(O)c1ccccc1NS(=O)(=O)c1ccc2c(c1)OCCO2 | inactive
Cc1ccccc1CN1CCC(CNc2ncnc3onc(-c4ccc(F)cc4)c23)CC1 | inconclusive: 4.11 µM [activator, full curve, poor fit]

Given with each value named: entries from further up
Nc1ncnc2c1ncn2[C@H]1C[C@H](O)[C@@H](CO)O1
  Potency: inactive and inconclusive: 25.9 µM [activator, single point]
COc1cc(NS(=O)(=O)c2ccc(NC(=O)/C=C/c3ccc([N+](=O)[O-])cc3)cc2)ncn1
  Potency: inconclusive: 8.2 µM [falling, partial curve, poor fit]
